Test results taken from paper PMC7999926.
No constants are given. Whether binding was seen depends on the method and setting. In cells and extracts the contact can be indirect. Some entries that bind do so weakly or less than the wild type. Where a sequence is shown, tags or fusion partners need not be part of it.

Target: T1, interferon regulatory factor 3 (IRF3)-FLAG (UniProt Q14653)
T1 sequence: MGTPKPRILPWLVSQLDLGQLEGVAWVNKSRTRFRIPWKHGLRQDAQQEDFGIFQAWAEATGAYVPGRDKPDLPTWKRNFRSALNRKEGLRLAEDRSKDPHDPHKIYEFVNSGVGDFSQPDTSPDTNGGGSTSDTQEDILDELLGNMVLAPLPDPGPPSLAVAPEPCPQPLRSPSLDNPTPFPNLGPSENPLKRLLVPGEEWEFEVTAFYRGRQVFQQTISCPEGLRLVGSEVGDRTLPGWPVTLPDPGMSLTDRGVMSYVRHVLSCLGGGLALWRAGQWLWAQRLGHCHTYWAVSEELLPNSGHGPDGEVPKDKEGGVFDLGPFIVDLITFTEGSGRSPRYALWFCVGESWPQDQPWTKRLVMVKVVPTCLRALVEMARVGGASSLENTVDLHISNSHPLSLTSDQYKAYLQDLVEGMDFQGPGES
Assay: co-IP

B1: Tank-binding kinase 1 (TBK1)-MYC (enzyme, UniProt Q9UHD2 1-729)
chain: MQSTSNHLWLLSDILGQGATANVFRGRHKKTGDLFAIKVFNNISFLRPVDVQMREFEVLKKLNHKNIVKLFAIEEETTTRHKVLIMEFCPCGSLYTVLEEPSNAYGLPESEFLIVLRDVVGGMNHLRENGIVHRDIKPGNIMRVIGEDGQSVYKLTDFGAARELEDDEQFVSLYGTEEYLHPDMYERAVLRKDHQKKYGATVDLWSIGVTFYHAATGSLPFRPFEGPRRNKEVMYKIITGKPSGAISGVQKAENGPIDWSGDMPVSCSLSRGLQVLLTPVLANILEADQEKCWGFDQFFAETSDILHRMVIHVFSLQQMTAHKIYIHSYNTATIFHELVYKQTKIISSNQELIYEGRRLVLEPGRLAQHFPKTTEENPIFVVSREPLNTIGLIYEKISLPKVHPRYDLDGDASMAKAITGVVCYACRIASTLLLYQELMRKGIRWLIELIKDDYNETVHKKTEVVITLDFCIRNIEKTVKVYEKLMKINLEAAELGEISDIHTKLLRLSSSQGTIETSLQDIDSRLSPGGSLADAWAHQEGTHPKDRNVEKLQVLLNCMTEIYYQFKKDKAERRLAYNEEQIHKFDKQKLYYHATKAMTHFTDECVKKYEAFLNKSEEWIRKMLHLRKQLLSLTNQCFDIEEEVSKYQEYTNELQETLPQKMFTASSGIKHTMTPIYPSSNTLVEMTLGMKKLKEEMEGVVKELAENNHILERFGSLTMDGGLRNVDCL
For B1, the binding was “binds”.
